Source: US20250283871A1, “COMPOSITIONS AND METHODS FOR MODULATING THE INTERACTION BETWEEN SS18-SSX FUSION ONCOPROTEIN AND NUCLEOSOMES” (Dana-Farber Cancer Institute, Inc., priority 2020, published 2025)

B1: REXO4 (protein, UniProt Q9GZR2 1-422, looked up)
RNA exonuclease 4: MGKAKVPASKRAPSSPVAKPGPVKTLTRKKNKKKKRFWKSKAREVSKKPASGPGAVVRPPKAPEDFSQNWKALQEWLLKQKSQAPEKPLVISQMGSKKKPKIIQQNKKETSPQVKGEEMPAGKDQEASRGSVPSGSKMDRRAPVPRTKASGTEHNKKGTKERTNGDIVPERGDIEHKKRKAKEAAPAPPTEEDIWFDDVDPADIEAAIGPEAAKIARKQLGQSEGSVSLSLVKEQAFGGLTRALALDCEMVGVGPKGEESMAARVSIVNQYGKCVYDKYVKPTEPVTDYRTAVSGIRPENLKQGEELEVVQKEVAEMLKGRILVGHALHNDLKVLFLDHPKKKIRDTQKYKPFKSQVKSGRPSLRLLSEKILGLQVQQAEHCSIQDAQAAMRLYVMVKKEWESMARDRRPLLTAPDHCSDDA
B2: AZGP1 (protein, UniProt P25311 21-298, looked up)
Zinc-alpha-2-glycoprotein: QENQDGRYSLTYIYTGLSKHVEDVPAFQALGSLNDLQFFRYNSKDRKSQPMGLWRQVEGMEDWKQDSQLQKAREDIFMETLKDIVEYYNDSNGSHVLQGRFGCEIENNRSSGAFWKYYYDGKDYIEFNKEIPAWVPFDPAAQITKQKWEAEPVYVQRAKAYLEEECPATLRKYLKYSKNILDRQDPPSVVVTSHQAPGEKKKLKCLAYDFYPGKIDVHWTRAGEVQEPELRGDVLHNGNGTYQSWVVVAVPPQDTAPYSCHVQHSSLAQPLVVPWEAS
B3: NOL8 (protein, UniProt Q76FK4 1-1167, looked up)
Nucleolar protein 8: MKVNRETKRLYVGGLSQDISEADLQNQFSRFGEVSDVEIITRKDDQGNPQKVFAYINISVAEADLKKCMSVLNKTKWKGGTLQIQLAKESFLHRLAQEREAAKAKKEESTTGNANLLEKTGGVDFHMKAVPGTEVPGHKNWVVSKFGRVLPVLHLKNQHKRKIIKYDPSKYCHNLKKIGEDFSNTIPISSLTWELEGGNDPMSKKRRGEFSDFHGPPKKIIKVQKDESSTGSLAMSTRPRRVIERPPLTQQQAAQKRTCDSITPSKSSPVPVSDTQKLKNLPFKTSGLETAKKRNSISDDDTDSEDELRMMIAKEENLQRTTQPSINESESDPFEVVRDDFKSGVHKLHSLIGLGIKNRVSCHDSDDDIMRNDREYDSGDTDEIIAMKKNVAKVKNSTEFSQMEKSTKKTSFKNRENCELSDHCIKLQKRKSNVESALSHGLKSLNRKSPSHSSSSEDADSASELADSEGGEEYNAMMKNCLRVNLTLADLEQLAGSDLKVPNEDTKSDGPETTTQCKFDRGSKSPKTPTGLRRGRQCIRPAEIVASLLEGEENTCGKQKPKENNLKPKFQAFKGVGCLYEKESMKKSLKDSVASNNKDQNSMKHEDPSIISMEDGSPYVNGSLGEVTPCQHAKKANGPNYIQPQKRQTTFESQDRKAVSPSSSEKRSKNPISRPLEGKKSLSLSAKTHNIGFDKDSCHSTTKTEASQEERSDSSGLTSLKKSPKVSSKDTREIKTDFSLSISNSSDVSAKDKHAEDNEKRLAALEARQKAKEVQKKLVHNALANLDGHPEDKPTHIIFGSDSECETEETSTQEQSHPGEEWVKESMGKTSGKLFDSSDDDESDSEDDSNRFKIKPQFEGRAGQKLMDLQSHFGTDDRFRMDSRFLETDSEEEQEEVNEKKTAEEEELAEEKKKALNVVQSVLQINLSNSTNRGSVAAKKFKDIIHYDPTKQDHATYERKRDDKPKESKAKRKKKREEAEKLPEVSKEMYYNIAMDLKEIFQTTKYTSEKEEGTPWNEDCGKEKPEEIQDPAALTSDAEQPSGFTFSFFDSDTKDIKEETYRVETVKPGKIVWQEDPRLQDSSSEEEDVTEETDHRNSSPGEASLLEKETTRFFFFSKNDERLQGSDLFWRGVGSNMSRNSWEARTTNLRMDCRKKHKDAKRKMKPK
B4: RBFOX2 (protein, UniProt O43251 1-390, looked up)
RNA binding protein fox-1 …: MQNEPLTPGYHGFPARDSQGNQEPTTTPDAMVQPFTTIPFPPPPQNGIPTEYGVPHTQDYAGQTGEHNLTLYGSTQAHGEQSSNSPSTQNGSLTTEGGAQTDGQQSQTQSSENSESKSTPKRLHVSNIPFRFRDPDLRQMFGQFGKILDVEIIFNERGSKGFGFVTFENSADADRAREKLHGTVVEGRKIEVNNATARVMTNKKMVTPYANGWKLSPVVGAVYGPELYAASSFQADVSLGNDAAVPLSGRGGINTYIPLISLPLVPGFPYPTAATTAAAFRGAHLRGRGRTVYGAVRAVPPTAIPAYPGVVYQDGFYGADLYGGYAAYRYAQPATATAATAAAAAAAAYSDGYGRVYTADPYHALAPAASYGVGAVASLYRGGYSRFAPY
B5: ZNF579 (protein, UniProt Q8NAF0 1-562, looked up)
Zinc finger protein 579: MDPQPPPPAQGSPPHRGRGRGRGRGRGRGRGRGRGGAGAPRAPLPCPTCGRLFRFPYYLSRHRLSHSGLRPHACPLCPKAFRRPAHLSRHLRGHGPQPPLRCAACPRTFPEPAQLRRHLAQEHAGGEVELAIERVAKETAEPSWGPQDEGSEPPTTAAAGATEEEAVAAWPETWPAGEPSTLAAPTSAAEPRESESEEAEAGAAELRAELALAAGRQEEKQVLLQADWTLLCLRCREAFATKGELKAHPCLRPEGEQEGEGGPPPRPKRHQCSICLKAFARPWSLSRHRLVHSTDRPFVCPDCGLAFRLASYLRQHRRVHGPLSLLAPLPAAGKKDDKASGARNSAKGPEGGEGAECGGASEGGEGQNGGDAAPARPPAGEPRFWCPECGKGFRRRAHLRQHGVTHSGARPFQCVRCQREFKRLADLARHAQVHAGGPAPHPCPRCPRRFSRAYSLLRHQRCHRAELERAAALQALQAQAPTSPPPPPPPLKAEQEEEGLPLPLANIKEEPPSPGTPPQSPPAPPVFLSASCFDSQDHSAFEMEEEEVDSKAHLRGLGGLAS
B6: ENO3 (protein, UniProt P13929 2-434, looked up)
Beta-enolase: AMQKIFAREILDSRGNPTVEVDLHTAKGRFRAAVPSGASTGIYEALELRDGDKGRYLGKGVLKAVENINNTLGPALLQKKLSVVDQEKVDKFMIELDGTENKSKFGANAILGVSLAVCKAGAAEKGVPLYRHIADLAGNPDLILPVPAFNVINGGSHAGNKLAMQEFMILPVGASSFKEAMRIGAEVYHHLKGVIKAKYGKDATNVGDEGGFAPNILENNEALELLKTAIQAAGYPDKVVIGMDVAASEFYRNGKYDLDFKSPDDPARHITGEKLGELYKSFIKNYPVVSIEDPFDQDDWATWTSFLSGVNIQIVGDDLTVTNPKRIAQAVEKKACNCLLLKVNQIGSVTESIQACKLAQSNGWGVMVSHRSGETEDTFIADLVVGLCTGQIKTGAPCRSERLAKYNQLMRIEEALGDKAIFAGRKFRNPKAK
B7: RBM34 (protein, UniProt P42696 1-430, looked up)
RNA-binding protein 34: MALEGMSKRKRKRSVQEGENPDDGVRGSPPEDYRLGQVASSLFRGEHHSRGGTGRLASLFSSLEPQIQPVYVPVPKQTIKKTKRNEEEESTSQIERPLSQEPAKKVKAKKKHTNAEKKLADRESALASADLEEEIHQKQGQKRKNSQPGVKVADRKILDDTEDTVVSQRKKIQINQEEERLKNERTVFVGNLPVTCNKKKLKSFFKEYGQIESVRFRSLIPAEGTLSKKLAAIKRKIHPDQKNINAYVVFKEESAATQALKRNGAQIADGFRIRVDLASETSSRDKRSVFVGNLPYKVEESAIEKHFLDCGSIMAVRIVRDKMTGIGKGFGYVLFENTDSVHLALKLNNSELMGRKLRVMRSVNKEKFKQQNSNPRLKNVSKPKQGLNFTSKTAEGHPKSLFIGEKAVLLKTKKKGQKKSGRPKKQRKQK
B8: BLMH (protein, UniProt Q13867 1-455, looked up)
Bleomycin hydrolase: MSSSGLNSEKVAALIQKLNSDPQFVLAQNVGTTHDLLDICLKRATVQRAQHVFQHAVPQEGKPITNQKSSGRCWIFSCLNVMRLPFMKKLNIEEFEFSQSYLFFWDKVERCYFFLSAFVDTAQRKEPEDGRLVQFLLMNPANDGGQWDMLVNIVEKYGVIPKKCFPESYTTEATRRMNDILNHKMREFCIRLRNLVHSGATKGEISATQDVMMEEIFRVVCICLGNPPETFTWEYRDKDKNYQKIGPITPLEFYREHVKPLFNMEDKICLVNDPRPQHKYNKLYTVEYLSNMVGGRKTLYNNQPIDFLKKMVAASIKDGEAVWFGCDVGKHFNSKLGLSDMNLYDHELVFGVSLKNMNKAERLTFGESLMTHAMTFTAVSEKDDQDGAFTKWRVENSWGEDHGHKGYLCMTDEWFSEYVYEVVVDRKHVPEEVLAVLEQEPIILPAWDPMGALAE
B9: SCAF11 (protein, UniProt Q99590 1-1463, looked up)
Protein SCAF11: MKKKTVCTLNMGDKKYEDMEGEENGDNTISTGLLYSEADRCPICLNCLLEKEVGFPESCNHVFCMTCILKWAETLASCPIDRKPFQAVFKFSALEGYVKVQVKKQLRETKDKKNENSFEKQVSCHENSKSCIRRKAIVREDLLSAKVCDLKWIHRNSLYSETGGKKNAAIKINKPQRSNWSTNQCFRNFFSNMFSSVSHSGESSFTYRAYCTEFIEASEISALIRQKRHELELSWFPDTLPGIGRIGFIPWNVETEVLPLISSVLPRTIFPTSTISFEHFGTSCKGYALAHTQEGEEKKQTSGTSNTRGSRRKPAMTTPTRRSTRNTRAETASQSQRSPISDNSGCDAPGNSNPSLSVPSSAESEKQTRQAPKRKSVRRGRKPPLLKKKLRSSVAAPEKSSSNDSVDEETAESDTSPVLEKEHQPDVDSSNICTVQTHVENQSANCLKSCNEQIEESEKHTANYDTEERVGSSSSESCAQDLPVLVGEEGEVKKLENTGIEANVLCLESEISENILEKGGDPLEKQDQISGLSQSEVKTDVCTVHLPNDFPTCLTSESKVYQPVSCPLSDLSENVESVVNEEKITESSLVEITEHKDFTLKTEELIESPKLESSEGEIIQTVDRQSVKSPEVQLLGHVETEDVEIIATCDTFGNEDFNNIQDSENNLLKNNLLNTKLEKSLEEKNESLTEHPRSTELPKTHIEQIQKHFSEDNNEMIPMECDSFCSDQNESEVEPSVNADLKQMNENSVTHCSENNMPSSDLADEKVETVSQPSESPKDTIDKTKKPRTRRSRFHSPSTTWSPNKDTPQEKKRPQSPSPRRETGKESRKSQSPSPKNESARGRKKSRSQSPKKDIARERRQSQSRSPKRDTTRESRRSESLSPRRETSRENKRSQPRVKDSSPGEKSRSQSRERESDRDGQRRERERRTRKWSRSRSHSRSPSRCRTKSKSSSFGRIDRDSYSPRWKGRWANDGWRCPRGNDRYRKNDPEKQNENTRKEKNDIHLDADDPNSADKHRNDCPNWITEKINSGPDPRTRNPEKLKESHWEENRNENSGNSWNKNFGSGWVSNRGRGRGNRGRGTYRSSFAYKDQNENRWQNRKPLSGNSNSSGSESFKFVEQQSYKRKSEQEFSFDTPADRSGWTSASSWAVRKTLPADVQNYYSRRGRNSSGPQSGWMKQEEETSGQDSSLKDQTNQQVDGSQLPINMMQPQMNVMQQQMNAQHQPMNIFPYPVGVHAPLMNIQRNPFNIHPQLPLHLHTGVPLMQVATPTSVSQGLPPPPPPPPPSQQVNYIASQPDGKQLQGIPSSSHVSNNMSTPVLPAPTAAPGNTGMVQGPSSGNTSSSSHSKASNAAVKLAESKVSVAVEASADSSKTDKKLQIQEKAAQEVKLAIKPFYQNKDITKEEYKEIVRKAVDKVCHSKSGEVNSTKVANLVKAYVDKYKYSRKGSQKKTLEEPVSTEKNIG

system: BAF complex subunits and histone proteins; assay: Mass spectrometry proteomics of purified HA-SS18 WT and HA-SS18-SSX1 complexes (Tables 5A-5E); design: species or system human; settings: HA-SS18WT_CHR_peptides: protein identified in HA-SS18 WT BAF complex purification from nuclease-treated solubilized chromatin (CHR), HEK-293T

Molecule | Total (total peptides) | Unique (unique peptides)
B1 | 1 | 1
B2 | 2 | 2
B3 | 1 | 1
B4 | 1 | 1
B5 | 1 | 1
B6 | 1 | 1
B7 | 1 | 1
B8 | 1 | 1
B9 | 2 | 2
